From ChEMBL document CHEMBL3988442, “University of Dundee, Small-Polar-MMV Screening Library” (2021).

Amino acid sequences for entries named in this document (tags omitted).
UniProt E9BF75, entry or part of it: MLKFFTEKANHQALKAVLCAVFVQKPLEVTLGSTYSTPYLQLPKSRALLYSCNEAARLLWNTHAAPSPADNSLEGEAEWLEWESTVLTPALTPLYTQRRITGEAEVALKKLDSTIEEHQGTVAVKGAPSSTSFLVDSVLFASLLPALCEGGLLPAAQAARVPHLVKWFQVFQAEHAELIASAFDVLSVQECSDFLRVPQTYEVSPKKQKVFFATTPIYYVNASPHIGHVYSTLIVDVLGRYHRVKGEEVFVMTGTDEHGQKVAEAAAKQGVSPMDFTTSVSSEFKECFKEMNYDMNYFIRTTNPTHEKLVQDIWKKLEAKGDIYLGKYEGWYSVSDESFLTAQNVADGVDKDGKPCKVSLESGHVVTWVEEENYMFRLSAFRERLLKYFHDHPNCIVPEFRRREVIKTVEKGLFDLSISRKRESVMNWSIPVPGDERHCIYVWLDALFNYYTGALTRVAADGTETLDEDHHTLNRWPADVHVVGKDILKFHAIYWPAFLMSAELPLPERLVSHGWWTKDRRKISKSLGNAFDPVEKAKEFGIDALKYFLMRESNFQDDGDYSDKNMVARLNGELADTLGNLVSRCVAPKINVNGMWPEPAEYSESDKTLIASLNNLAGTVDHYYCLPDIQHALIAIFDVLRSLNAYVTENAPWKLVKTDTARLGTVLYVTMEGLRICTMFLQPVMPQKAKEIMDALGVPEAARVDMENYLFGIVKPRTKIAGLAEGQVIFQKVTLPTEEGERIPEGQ

All values are in %.
The record does not define 0% and 100%; most values in the screen are far below 50% and negative numbers occur (in some assays of this library far below -100).
Compounds were drawn at random from those tested, without regard to their results.

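Methionyl-tRNA synthetase (putative), Leishmania donovani (UniProt E9BF75). Primary screen of methionyl-tRNA synthetase; the read-out is not stated. The test concentration is not given. The values are filed as inhibition. About 68,000 compounds were tested under these conditions; 0.035% (about 24) showed 50% or more at least once.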

| structure | Inhibition |
|---|---|
| `O=C(c1ccccn1)N1Cc2nccn2CC(CN2CCOCC2)C1` (stereo not drawn) | 14.16% |
| `Cc1noc(C(C)NC(=O)[C@@H](C)NC(=O)OC(C)(C)C)n1` (stereo partly drawn) | 11.8% |
| `CCOCC(O)c1nc2c([nH]1)CC(C)(C)CNC2=O` (stereo not drawn) | 10.21% |
| `Cc1nc(CN2CCC(c3nc4ccccc4n3C)CC2)co1` | 8.333% |
| `O=C(N[C@@H]1CCN(c2nc3ccccc3o2)C[C@H]1O)c1cnccn1` | 15.38% |
| `Cc1cccc(Cn2c(=O)[nH]c3csnc3c2=O)c1` | 8.579% |
| `COc1ccccc1CC(=O)N(C)Cc1cc(C)on1` | 11.45% |
| `CC(C)N(CCC#N)C(=O)c1cnc(-c2ccc3c(c2)OCO3)s1` | -0.7444% |
| `CCOC(=O)C1CN(C(=O)C2CCOCC2)Cc2ncn(CC)c21` (stereo not drawn) | 16.29% |
| `COc1ccc(N(C)C(=O)C2CN(C)CCO2)cc1Cl` (stereo not drawn) | 6.267% |
| `O=C(c1cccnc1)N1C[C@@H]2CC[C@H](C1)N(Cc1ccc(F)cc1Cl)C2` | 2.676% |
| `O=C(c1cccs1)N1CC[C@@H](N2CCOCC2)[C@@H]1Cc1ccccc1` | 5.229% |
| `COC(=O)c1ccc(NC(=O)CNCc2ccco2)cc1` | 1.005% |
| `Cc1cc(C)n(CC2CN(CCC(=O)NC3CCCCC3)CCO2)n1` (stereo not drawn) | 17.95% |
| `Cc1ccc2ncccc2c1CN1CC[C@H](N(C)C)[C@H](CCC(=O)O)C1` | 1.977% |
| `O=C(NC[C@H]1OC[C@@H](NC2CCC2)[C@@H]1O)Nc1ccccc1` | 0.339% |
| `CC(C)C1CN(S(=O)(=O)Cc2cccc(C#N)c2)CCS1` (stereo not drawn) | 11.35% |
| `CCn1nc(C)c(CCNC(=O)c2cccc(-n3cccn3)c2)c1C` | 1.72% |
| `CC(C)c1noc(C(C)N2CCN(CCc3ccncc3)CC2)n1` (stereo not drawn) | 8.871% |
| `CN1CCCCCC1C(=O)N1CCN(c2ccccc2C#N)CC1` (stereo not drawn) | 12.32% |
| `Cc1nc(CCNC(=O)NC(C)Cn2cccn2)cs1` (stereo not drawn) | 24.02% |
| `COc1ncccc1N(C)C(=O)Cn1cc(-c2ccccc2)nn1` | 13.13% |
| `NC1CCCCN(Cc2ccccc2CS(=O)(=O)c2ccccc2)C1` (stereo not drawn) | 19.35% |
| `OC(CN(Cc1ccccc1)Cc1cccnc1)c1cccs1` (stereo not drawn) | 16.85% |
| `CC(C)c1n[nH]c(C2CN(Cc3nnc(C4CC4)n3C)CCO2)n1` (stereo not drawn) | 14.78% |
| `CC(C)OCCC1CCCCN1S(=O)(=O)c1cnn(C)c1` (stereo not drawn) | 2.957% |
| `Cn1nc(C(=O)NCc2cccs2)c2c1CCS(=O)(=O)C2` | 0.2513% |
| `c1cnc(N2CCN(Cn3nccc3-c3cccnc3)CC2)nc1` | 6.849% |
| `Fc1cccc(C2(CNC3CCOC4(CCOCC4)C3)CCOCC2)c1` (stereo not drawn) | 3.684% |
| `Cc1cc(C)nc(N2CCCC(c3cccc(-n4ccnc4)n3)C2)n1` (stereo not drawn) | 6.824% |
| `CCC(=O)Nc1nnc(CCOc2ccc(OC)cc2)s1` | -38.44% |
| `CCN1CCN(C)C(=O)C12CCN(C(=O)Cc1ccccn1)CC2` | 14.84% |
| `OC(CN1CCN(CC(F)F)CC1)c1ccc(Br)cc1` (stereo not drawn) | 9.639% |
| `CCc1n[nH]c(C2CN(C(=O)CCn3ccccc3=O)CCO2)n1` (stereo not drawn) | 25.07% |
| `Cc1nc(C2CCCN2C(=O)Cc2ccc(F)cc2)ncc1C(N)=O` (stereo not drawn) | 9.709% |
| `CSCC(=O)N1CCCC(CCC(=O)N(C)CCc2ccccn2)C1` (stereo not drawn) | 1.25% |
| `c1c[nH]c2nc(C3CCNCC3)nc-2c1` | 12.57% |
| `CC(NC(=O)NCCn1ccnc1)c1ccc2c(c1)OCCO2` (stereo not drawn) | 10.99% |
| `O=C1C(NCc2ccccc2O)CCN1Cc1ccccc1` (stereo not drawn) | 11.11% |
| `Cc1ccoc1C(=O)N1CC[C@H]2OCC[C@@]2(COCc2ccncc2)C1` | 20.59% |
| `Cc1cccc(CN2CCCn3c(nnc3CN3CCCC3=O)C2)n1` | 8.964% |
| `c1cncc(OCc2nnn3c2CN(Cc2ccsc2)CCC3)c1` | 8.787% |
| `O=S(=O)(c1ccccc1)N1CCC[C@]2(C[C@H](OCC3CC3)CO2)C1` | 3.333% |
| `Cn1cc(C(=O)NC[C@@H]2OC[C@H]3CN(S(C)(=O)=O)CC[C@H]32)cn1` | 16.5% |
| `Cc1ccn2cc(C(=O)N3CCCC(Cn4cc(CO)nn4)C3)nc2c1` (stereo not drawn) | 13.75% |
| `COCCN1CC(Nc2nc(C(C)C)nc3c2cnn3C)CC1=O` (stereo not drawn) | 3.169% |

Repeated from the top, 3 entries:

- O=C(c1ccccn1)N1Cc2nccn2CC(CN2CCOCC2)C1 (stereo not drawn) | 14.16%
- Cc1noc(C(C)NC(=O)[C@@H](C)NC(=O)OC(C)(C)C)n1 (stereo partly drawn) | 11.8%
- CCOCC(O)c1nc2c([nH]1)CC(C)(C)CNC2=O (stereo not drawn) | 10.21%